Measurements published in patent US7060293B1, “Powder-layered oral dosage forms” (Purdue Pharma, priority 1994, dated 2006).
At least one structure is not confirmed: it was looked up by name or label, or the drawing left a doubt.

Legend:
[1] = entries without asterisk (not marked as performed at PRC); cited from earlier work
[2] = Bulk density (poured and tapped) of drug powders and processing aid; type: physicochemical; settings: powder used in the examples

| SMILES | Tapped Bulk Densities [1] | bulk density [2] |
| --- | --- | --- |
| COc1ccc2c3c1O[C@H]1[C@@H](O)C=C[C@H]4[C@@H](C2)N(C)CC[C@@]341 [Codeine Phosphate USP Powder, Codeine Phosphate] | 0.25 g/mL | – |
| COc1ccc2c3c1O[C@H]1[C@@H](O)C=C[C@H]4[C@@H](C2)N(C)CC[C@@]341 [Codeine Phosphate USP Special Powder, Codeine Phosphate] | 0.55 g/mL | about 0.55 g/ml |
